Laboratory results: paper PMC7795690
No constants are given. Whether binding was seen depends on the method and setting. Binding seen in cells or lysates may run through a third protein. Some binding calls cover weakened binding; strength is not graded here.

Molecular target: His-tagged NudC, Q9Y266
Test: pull-down; Ni-NTA magnetic resin pull-down of His-tagged NudC from lysate of transfected HEK293T cells (48 h; 25 mM Tris, 150 mM NaCl, 1.0 mM EDTA, 1% NP-40, 5% glycerol, pH 7.4); immunoblot of the elution
Conditions: remark: other sources report otherwise

binding: binds
B1: lissencephaly 1 (Lis1), endogenous in HEK293T cells, P43034 1-410 (protein)
chain: MVLSQRQRDELNRAIADYLRSNGYEEAYSVFKKEAELDVNEELDKKYAGLLEKKWTSVIRLQKKVMELESKLNEAKEEFTSGGPLGQKRDPKEWIPRPPEKYALSGHRSPVTRVIFHPVFSVMVSASEDATIKVWDYETGDFERTLKGHTDSVQDISFDHSGKLLASCSADMTIKLWDFQGFECIRTMHGHDHNVSSVAIMPNGDHIVSASRDKTIKMWEVQTGYCVKTFTGHREWVRMVRPNQDGTLIASCSNDQTVRVWVVATKECKAELREHEHVVECISWAPESSYSSISEATGSETKKSGKPGPFLLSGSRDKTIKMWDVSTGMCLMTLVGHDNWVRGVLFHSGGKFILSCADDKTLRVWDYKNKRCMKTLNAHEHFVTSLDFHKTAPYVVTGSVDQTVKVWECR
